# Laboratory results taken from the supplement of paper PMC4604168 (melanoma cell lines).
# This is one part of the list. Many values rest on one well or one pass, so single values are uncertain.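 Cells were imaged in 1,536-well plates, and nuclei stained with an antibody against cleaved PARP were counted against all DNA-stained nuclei to give the apoptosis fraction. Screening doses were chosen to leave most cells alive, and resting and induced cleaved-PARP levels differ strongly between cell lines.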
# Tested on: COLO792
# Test: cleaved PARP positive nuclei fraction relative to DMSO control; melanoma cells; higher = more apoptosis
# Settings: library dose: low library concentration; 72 h
row,Compound,cleaved PARP positive nuclei fraction [%]
1,"CCN(CC)CCNC(=O)c1c(C)[nH]c(/C=C2\C(=O)Nc3ccc(F)cc32)c1C [sunitinib] + N#Cc1c(O)c2c(-c3ccc(-c4ccccc4O)cc3)csc2[nH]c1=O [A769662] (first compound 0.4 µM, partner dose 2 µM)",102
2,"CS(=O)(=O)c1ccc(C(=O)Nc2ccc(Cl)c(-c3ccccn3)c2)c(Cl)c1 [vismodegib] + Cn1cc(/C=C2\C(=O)Nc3cccnc32)c2ccccc21 [GW441756] (first compound 1 µM, partner dose 0.4 µM)",86.8
3,"COc1ccc(C2=N[C@@H](c3ccc(Cl)cc3)[C@@H](c3ccc(Cl)cc3)N2C(=O)N2CCNC(=O)C2)c(OC(C)C)c1 [Nutlin-3] + Cn1cc(/C=C2\C(=O)Nc3cccnc32)c2ccccc21 [GW441756] (first compound 0.1 µM, partner dose 0.4 µM)",104
4,"COc1ccc(C2=N[C@@H](c3ccc(Cl)cc3)[C@@H](c3ccc(Cl)cc3)N2C(=O)N2CCNC(=O)C2)c(OC(C)C)c1 [Nutlin-3] + COc1ccc(COc2ccc(Cc3cnc(N)nc3N)cc2OC)cc1 [GW2580] (first compound 0.1 µM, partner dose 1 µM)",193
5,"C[C@@H](N)c1ccc(C(=O)Nc2ccnc3[nH]ccc23)cc1 + O=C1NC(=O)/C(=C/c2ccc(-c3ccc(F)cc3O)o2)S1 [AS252424] (first compound 0.4 µM, partner dose 1 µM)",43.8
6,"C[C@]1(O)C[C@@H](c2nc(-c3ccc4ccc(-c5ccccc5)nc4c3)c3c(N)nccn32)C1 + Oc1cc(-c2nc(-c3ccccc3)[nH]c2-c2ccncc2)ccc1Cl [L779450] (first compound 0.4 µM, partner dose 0.2 µM)",45.6
7,"CCCCCCCCc1ccc(CCC(N)(CO)CO)cc1 [fingolimod] + COC(=O)c1sccc1S(=O)(=O)Nc1ccc(Nc2ccccc2)cc1OC [GSK0660] (first compound 2 µM, partner dose 1 µM)",124
8,"CCN(CC)CCNC(=O)c1c(C)[nH]c(/C=C2\C(=O)Nc3ccc(F)cc32)c1C [sunitinib] + O=C1NC(=O)/C(=C/c2ccc(-c3ccc(F)cc3O)o2)S1 [AS252424] (first compound 0.4 µM, partner dose 1 µM)",94.1
9,"NC1(c2ccc(-c3nc4ccn5c(=O)[nH]nc5c4cc3-c3ccccc3)cc2)CCC1 + CC(C)CCN1c2nc(Nc3cc(F)c(O)c(F)c3)ncc2N(C)C(=O)C1C [BID1870] (first compound 0.4 µM, partner dose 0.2 µM)",96.2
10,"CC(=O)O[C@@]12CO[C@@H]1C[C@H](O)[C@@]1(C)C(=O)[C@H](O)C3=C(C)[C@@H](OC(=O)[C@H](O)[C@@H](NC(=O)OC(C)(C)C)c4ccccc4)C[C@@](O)([C@@H](OC(=O)c4ccccc4)[C@H]21)C3(C)C [Docetaxel] + CCCCCCCCCCCC1=C(O)C(=O)C=C(O)C1=O [Embelin] (first compound 0.0001 µM, partner dose 1.2 µM)",478
11,"Cn1cnc2c(F)c(Nc3ccc(Br)cc3Cl)c(C(=O)NOCCO)cc21 [selumetinib] + COc1ccc(COc2ccc(Cc3cnc(N)nc3N)cc2OC)cc1 [GW2580] (first compound 0.015 µM, partner dose 1 µM)",109
12,"C[C@]1(O)C[C@@H](c2nc(-c3ccc4ccc(-c5ccccc5)nc4c3)c3c(N)nccn32)C1 + O=C(O)C(=O)Nc1sc2c(c1C(=O)O)CCNC2 [TCS401] (first compound 0.4 µM, partner dose 1.66667 µM)",136
13,"CCN(CC)CCNC(=O)c1c(C)[nH]c(/C=C2\C(=O)Nc3ccc(F)cc32)c1C [sunitinib] + c1cc(-c2cnn3cc(-c4ccc(OCCN5CCCCC5)cc4)cnc23)ccn1 [Dorsomorphin] (first compound 0.4 µM, partner dose 0.4 µM)",77.6
14,"CC1(C)CCC(c2ccc(Cl)cc2)=C(CN2CCN(c3ccc(C(=O)NS(=O)(=O)c4ccc(N[C@H](CCN5CCOCC5)CSc5ccccc5)c(S(=O)(=O)C(F)(F)F)c4)cc3)CC2)C1 + COc1cc(N2CCC(N3CCN(C)CC3)CC2)ccc1Nc1ncc(Cl)c(Nc2ccccc2S(=O)(=O)C(C)C)n1 [NVP-TAE684] (first compound 0.4 µM, partner dose 0.08 µM)",477

# 2 entries from above, reformatted:
row | Compound | cleaved PARP positive nuclei fraction [%]
2 | CS(=O)(=O)c1ccc(C(=O)Nc2ccc(Cl)c(-c3ccccn3)c2)c(Cl)c1 [vismodegib] + Cn1cc(/C=C2\C(=O)Nc3cccnc32)c2ccccc21 [GW441756] (first compound 1 µM, partner dose 0.4 µM) | 86.8
3 | COc1ccc(C2=N[C@@H](c3ccc(Cl)cc3)[C@@H](c3ccc(Cl)cc3)N2C(=O)N2CCNC(=O)C2)c(OC(C)C)c1 [Nutlin-3] + Cn1cc(/C=C2\C(=O)Nc3cccnc32)c2ccccc21 [GW441756] (first compound 0.1 µM, partner dose 0.4 µM) | 104
